# The campaign covered roughly 400,000 compounds. About 13,000 (3.2%) were called active. The shares of active, inactive and inconclusive entries below differ from those in the screen. The call rests on the fitted dose curve; in most records, active means well fitted cell-killing curve with a large enough effect; inconclusive means small, poorly fitted or top-dose-only effect, or effect the other way; inactive means flat fitted curve, though single readings scatter. Where the call is inconclusive, the potency comes from a doubtful curve fit.
# Experiment: qHTS assay for MDR1-selective chemotherapeutics: Primary screen using the drug-selected MDR subline cells KB-V1; further: nearly all actives have a fitted effect of over 60% in size
# Conditions: KB-V1 MDR cells viability, CellTiter-Glo, 72 h; activity change, negative = cytotoxicity: at 46.1 µM (top of the series)
# Procedure, shortened: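 KB-V1 MDR subline cells in DMEM (phenol-red free, 10% FBS) exposed to compounds in qHTS concentration series for 72 h at 37 degrees C. Viability read by CellTiter-Glo luminescence; concentration-effect curves fitted after normalization and correction.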
# On the % scale 0 is the no-effect control and ±100 the full control effect; potency means the concentration at half of the fitted maximal effect.
Compound,Potency,"activity change, negative = cytotoxicity"
Cc1ccc(S(=O)(=O)Nc2ccc3ncccc3c2[N+](=O)[O-])cc1,active: 20.6 µM,–
COc1ccc(NC(=O)CN2C(=O)C(=O)c3ccccc32)c(OC)c1,"inconclusive: 18.4 µM [cytotoxic, single point]",–
CCCN(CCC)S(=O)(=O)c1ccc(C(=O)N2CCCc3ccccc32)cc1,"inconclusive: 8.2 µM [cytotoxic, partial curve]",–
COc1ccc(NC(=O)CN(C)CC(=O)c2c(C)[nH]c3ccccc23)cc1,active: 7.31 µM,–
CCOC(=O)C1CCN(c2nc3ccccc3nc2C(C#N)C(=O)OC(C)C)CC1 (stereo not given),inactive,–
N#Cc1c(Nc2cccc(F)c2)sc2c(O)cc(=O)[nH]c12,inactive,–
CN(Cc1ccccc1)c1nc2c(S(=O)(=O)c3ccccc3)nnn2c2ccsc12,inactive,–
COC(=O)Cn1c(=O)c(C)nc2ccccc21,"inconclusive: 18.4 µM [rising, partial curve]",–
COc1ccc(C(=O)OCc2cc(C)ccc2C)cc1S(=O)(=O)N1CCCC1,active: 5.17 µM,–
C=CCc1cc2c(oc(=O)c3ccccc32)c(C)c1O,inactive,–
CC1CCCN1c1ccnc2cc(Cl)ccc12 (stereo not given),inactive,–
Cc1ccc(N(CC(=O)Nc2ccc(F)c(Cl)c2)S(=O)(=O)c2c(C)noc2C)cc1,active: 18.4 µM,–
O=C(Cc1cccs1)N(c1ccc(F)cc1)C1(C(=O)NC2CCCCC2)CCCC1,inactive,–
CCc1ccc(C=O)cc1,inactive,–
Cc1cc(Oc2ccc(=O)n(C)n2)nc(SCCOc2ccccc2)n1,"inconclusive: 16.4 µM [cytotoxic, partial curve]",–
O=C(Nc1ccccc1)c1cccc(S(=O)(=O)NCc2ccco2)c1,active: 23.1 µM,–
C=CCOC(=O)/C(=C\c1ccc(OC)cc1)NC(=O)c1ccco1,inactive,–
Cc1nn(CC(O)CN2c3ccccc3Sc3ccccc32)c(C)c1Br (stereo not given),"inconclusive: 23.1 µM [cytotoxic, single point]",–
CCc1ccccc1NC(=O)Nc1ccc(F)cc1F,inactive,–
CCOc1ccc(N2CC(=O)Nc3ccccc3NCC2=O)cc1,inactive,–
CS(=O)(=O)c1ncc(CO)n1Cc1ccccc1,inactive,–
O=C(c1nc2ccccn2c1CN1CCCC(c2nc3ccccc3o2)C1)N1CCCC1 (stereo not given),"inconclusive: 5.8 µM [cytotoxic, partial curve, poor fit]",–
COc1ccc(C(=O)CSC#N)cc1OC,inactive,–
Cc1cc(-n2c(C)cc(C(=O)CSc3nnnn3-c3ccc(Cl)cc3)c2C)no1,inactive,–
CCC(=O)N1CCN(c2ccc(NC(=O)COc3ccccc3Cl)cc2)CC1,"inconclusive: 2.31 µM [cytotoxic, full curve]",–

Compound,Potency,"activity change, negative = cytotoxicity"
CCS(=O)(=O)N1CCC2(CC1)OC(=O)C(C)=C2C(=O)NCc1ccc(OC)c(OC)c1,"inconclusive: 20.6 µM [rising, partial curve, poor fit]",–
CC[n+]1c(P(=O)([O-])c2ccccc2)[nH]c2ccccc21,"inconclusive: 0.103 µM [rising, full curve]",–
CCC1CCCN1Cn1cnc2c([nH]c3ccc(C)cc32)c1=O (stereo not given),"inconclusive: 14.6 µM [cytotoxic, single point]",–
CCNC(=S)Nc1ccc(Cl)c([N+](=O)[O-])c1,"inconclusive: 18.4 µM [cytotoxic, single point]",–
Cc1ccc(Sc2cc(NCCCO)c([N+](=O)[O-])c3nonc23)cc1,inactive,–
CN1CCN(C(=O)c2ccc(S(=O)(=O)c3ccc(Br)cc3)cc2)CC1,inactive,–
N/C(=N\OC(=O)CC1CCCCC1)c1ccc(Cl)cc1,inactive,–
COc1ccc(-n2c(C)cc(C(=O)COC(=O)c3ccc(O)cc3O)c2C)cc1,"inconclusive: 16.4 µM [cytotoxic, single point]",–
Cc1cccc(NS(=O)(=O)c2ccc(C)c(C(=O)OCC(=O)Nc3cc(C)on3)c2)c1,"inconclusive: 18.4 µM [cytotoxic, single point]",–
Cc1cccc(-n2ncc3c2CCCC3NC(=O)CC(F)(F)F)c1C (stereo not given),"inconclusive: 18.4 µM [cytotoxic, single point]",–
COCCn1c(=NC(=O)CSCC(=O)N2CCOCC2)sc2cc(C)ccc21,"inconclusive: 7.31 µM [cytotoxic, partial curve]",–
CCC(=O)Nc1ccc(C(=O)CSc2nnc(CNc3ccc(Cl)cc3)o2)cc1OC,active: 14.6 µM,–
CC1CCN(C(=O)CSc2nnc(CSc3ncccn3)n2C)CC1,"inconclusive: 32.6 µM [cytotoxic, partial curve, poor fit]",–
Cc1ccc(S(=O)(=O)N2[C@H](CC(=O)OCc3ccccc3)OC[C@@H]2C)cc1,"inconclusive: 18.4 µM [cytotoxic, partial curve, poor fit]",–
O=C(c1cccc(N2C(=O)C3CC=CCC3C2=O)c1)N1CCN(c2ccccc2)CC1 (stereo not given),active: 23.1 µM,–
Nc1cc2c(cc1N)-c1ccccc1C2,"inconclusive: 29.1 µM [cytotoxic, partial curve, poor fit]",–
O=C(CC1C[C@H](C(=O)N2CCOCC2)[C@@]2(CCC3CCCC3)c3[nH]c4ccccc4c3CCN2C1=O)NCc1ccco1 (stereo not given in full),inactive,–
CCOc1ccc2nc(SCC(=O)NCc3ccccc3OC)[nH]c2c1,"inconclusive: 16.4 µM [cytotoxic, partial curve]",–
Cc1ccc(C)c(N2CCN(C(=O)NCc3noc4ccccc34)CC2)c1,inactive,–
Cc1csc(NC(=O)C2CCCN(S(=O)(=O)c3ccc(Br)s3)C2)n1 (stereo not given),"inconclusive: 14.6 µM [cytotoxic, partial curve]",–
CCS(=O)(=O)N1CCc2cc(C(=O)Nc3cc(C)cc(C)c3)ccc21,"inconclusive: 29.1 µM [cytotoxic, single point]",–
CC(=O)N1CCN(CC(=O)Nc2ccc(Cl)c(S(=O)(=O)N(C)C)c2)CC1,inactive,–
NC(=O)C1CCN(c2cc(-c3ccc4c(c3)OCCCO4)ncn2)CC1,"inconclusive: 14.6 µM [rising, partial curve, poor fit]",–
Cc1ccc(NC(=O)c2ccc(OC(=O)c3ccco3)cc2)cc1,inactive,–
O=C(Nc1nc2ccccc2[nH]1)C1CCCC1,"inconclusive: 20.6 µM [cytotoxic, single point]",–

# A run of entries from further up, for reference:
Compound,Potency,"activity change, negative = cytotoxicity"
Nc1cc2c(cc1N)-c1ccccc1C2,"inconclusive: 29.1 µM [cytotoxic, partial curve, poor fit]",–
O=C(CC1C[C@H](C(=O)N2CCOCC2)[C@@]2(CCC3CCCC3)c3[nH]c4ccccc4c3CCN2C1=O)NCc1ccco1 (stereo not given in full),inactive,–
CCOc1ccc2nc(SCC(=O)NCc3ccccc3OC)[nH]c2c1,"inconclusive: 16.4 µM [cytotoxic, partial curve]",–
Cc1ccc(C)c(N2CCN(C(=O)NCc3noc4ccccc34)CC2)c1,inactive,–
Cc1csc(NC(=O)C2CCCN(S(=O)(=O)c3ccc(Br)s3)C2)n1 (stereo not given),"inconclusive: 14.6 µM [cytotoxic, partial curve]",–

# Following part

Compound,Potency,"activity change, negative = cytotoxicity"
NNC(=O)CCc1nc2ccc(O)cc2[nH]1,"inconclusive: 2.91 µM [cytotoxic, partial curve, poor fit]",–
Oc1ccccc1-c1cc(-c2ccc3c(c2)OCCO3)n[nH]1,"inconclusive: 16.4 µM [cytotoxic, partial curve]",–
COc1ccc(C(=O)N=C2SC3CS(=O)(=O)CC3N2Cc2ccccc2)cc1OC (stereo not given),"inconclusive: 16.4 µM [cytotoxic, partial curve, poor fit]",–
CN1CCN(/N=C/c2ccc(-c3ccccc3)cc2)CC1,inactive,–
Cc1ccc(CN2C(=O)CCC2(C)c2nnnn2-c2c(C)cccc2C)cc1 (stereo not given),"inconclusive: 9.2 µM [cytotoxic, partial curve]",–
COc1cccc(CN2CC(C(=O)NCc3ccc(C)c(F)c3)CCC2=O)c1 (stereo not given),"inconclusive: 25.9 µM [cytotoxic, single point]",–
Cc1cc(=O)oc2cc(OCC(=O)N3CCOCC3)c(Cl)cc12,active: 9.2 µM,–
COc1cccc(NC(=O)CN(C)C(=O)Cc2ccc3c(c2)CCC3)c1,active: 14.6 µM,–
Cc1cc(=O)n2nc(N3CCCC(C(=O)NCCCN4CC(C)CC(C)C4)C3)sc2n1 (stereo not given),"inconclusive: 20.6 µM [rising, single point]",–
Cc1c(C(=O)NCC2CC2)sc(=O)n1Cc1cccc(F)c1,"inconclusive: 20.6 µM [cytotoxic, single point]",–
COc1cccc(C(=O)N2CCOCC2)c1,"inconclusive: 1.3 µM [rising, full curve]",–
Cc1ccccc1OCC(=O)Nc1ccc(S(=O)(=O)Nc2ccccn2)cc1,"inconclusive: 18.4 µM [cytotoxic, single point]",–
CCOc1ccc(NC(=O)CCNS(=O)(=O)c2ccc3c(c2)CC(C)N3C(C)=O)cc1 (stereo not given),–,inconclusive: 33.4%
Cc1cc2ncn(-c3ncnc4scc(-c5ccccc5)c34)c2cc1C,active: 4.11 µM,–
N#C/C(=C\c1cccn1S(=O)(=O)c1cccc([N+](=O)[O-])c1)S(=O)(=O)c1ccc(F)cc1,inactive,–
CCOC(=O)c1c[nH]c2c3c(ccc2c1=O)CCCC3,"inconclusive: 18.4 µM [cytotoxic, single point]",–
Cc1ccccc1NC(=O)CSc1nc(N)c(C#N)cc1C#N,"inconclusive: 10.3 µM [cytotoxic, partial curve]",–
Cc1ccc(C2=[N+]([O-])C(C)N(O)C2(C)C)o1 (stereo not given),"inconclusive: 5.8 µM [rising, full curve]",–
C=CCOC(=O)Nc1nc(CCNC(=O)OC(C)(C)C)c(C(=O)O)s1,inactive,–
CCc1nc2c(OCc3ccc(Cl)cc3Cl)cccn2c1N(C)C(=O)CC(C)C,"inconclusive: 18.4 µM [cytotoxic, partial curve, poor fit]",–
CCCCN(CC)CCNC(=O)CN1C(=O)COc2ccc(S(=O)(=O)N3CCOCC3)cc21,"inconclusive: 16.4 µM [rising, single point]",–
CCCCS/C(=C(/C#N)C(N)=O)c1cc2c([nH]1)CCCC2,"inconclusive: 29.1 µM [cytotoxic, single point]",–
COc1ccc(NC(=O)NC2CCCCC2C)cc1 (stereo not given),inactive,–
CC1(C(=O)NC2CCCCCCC2)CCC(=O)N1Cc1ccco1 (stereo not given),"inconclusive: 23.1 µM [cytotoxic, single point]",–
COc1ccc(-c2nnc(SCC(=O)N3CCN(c4ccccc4)CC3)o2)cc1OC,inactive,–

# — PubChem BioAssay AID1347076 (National Center for Advancing Translational Sciences (NCATS), 2019)
